For some assays here: Strings that start with PEPTIDE1 are HELM notation: dots part the residues, brackets hold end groups and non-standard residues. The star is where a group is joined. Fmoc = O=C(OCC1c2ccccc2-c2ccccc21)*
How the values were obtained:
[1] = general procedure: Fmoc solid-phase peptide synthesis; Fmoc-Gly-Wang resin; COMU, DIPEA; conditions: whole synthesis
[2] = general procedure: Fmoc solid-phase peptide synthesis; Fmoc-Gly preloaded Wang resin (loading 0.4–0.8 mmol/g); COMU, DIPEA; conditions: late stage modification step

| Substance | isolated yield [1] | step yield [2] |
| --- | --- | --- |
| Fmoc-GPLG-OH | 99% yield | – |
| PEPTIDE1{G.P.L.G.[PABC-MMAE]}$$$$V2.0 | – | 61% yield |
